# Percent effect of library compounds

Chains of the proteins cited; added tags and fusions are not shown. Residues count along the entry.
UniProt A4I591, 1-473: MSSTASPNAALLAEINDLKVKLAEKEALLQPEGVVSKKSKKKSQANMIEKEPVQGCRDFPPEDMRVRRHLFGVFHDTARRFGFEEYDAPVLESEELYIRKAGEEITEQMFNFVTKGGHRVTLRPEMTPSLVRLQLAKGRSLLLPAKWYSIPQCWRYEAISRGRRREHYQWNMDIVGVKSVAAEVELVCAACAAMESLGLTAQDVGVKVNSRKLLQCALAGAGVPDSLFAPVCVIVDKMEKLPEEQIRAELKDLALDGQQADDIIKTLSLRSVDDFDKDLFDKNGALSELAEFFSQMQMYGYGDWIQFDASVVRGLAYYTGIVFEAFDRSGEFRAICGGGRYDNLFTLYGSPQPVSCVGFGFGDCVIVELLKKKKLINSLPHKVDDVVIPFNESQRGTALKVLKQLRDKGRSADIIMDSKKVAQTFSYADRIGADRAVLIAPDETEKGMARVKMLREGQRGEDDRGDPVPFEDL
UniProt P9WNZ1, whole entry: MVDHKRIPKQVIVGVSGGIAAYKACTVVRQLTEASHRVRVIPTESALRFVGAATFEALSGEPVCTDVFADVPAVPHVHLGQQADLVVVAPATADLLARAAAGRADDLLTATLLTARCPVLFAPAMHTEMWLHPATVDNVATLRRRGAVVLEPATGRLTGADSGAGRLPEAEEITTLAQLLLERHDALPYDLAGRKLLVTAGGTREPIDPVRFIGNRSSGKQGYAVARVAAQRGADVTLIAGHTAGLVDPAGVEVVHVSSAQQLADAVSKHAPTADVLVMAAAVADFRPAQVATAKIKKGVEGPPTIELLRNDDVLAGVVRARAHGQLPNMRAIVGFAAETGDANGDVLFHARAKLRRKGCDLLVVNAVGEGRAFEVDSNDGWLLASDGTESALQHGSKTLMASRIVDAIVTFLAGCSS

The values are deposited in ChEMBL (CHEMBL3988442, “University of Dundee, Small-Polar-MMV Screening Library” (2021)).

The filed quantity is “Percent Effect” (%). The record does not define 0% and 100%; most values in the screen are far below 50% and negative numbers occur (in some assays of this library far below -100). Compounds were drawn at random from those tested, without regard to their results. Two or more numbers in one place are separate tests of the same structure; such repeats can differ widely.

LiHisRS: 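Enzyme assay of histidyl-tRNA synthetase; the read-out is not stated. Target: Histidine-tRNA ligase, Leishmania infantum (UniProt A4I591). Compounds at 30 µM. The record gives no direction; compounds that gave an IC50 in retests scored well above the rest, so higher reads as stronger inhibition. The assay is labelled LdHisRS but filed under L. infantum. About 69,000 compounds were tested under these conditions; 0.6% (about 410) showed 50% or more at least once.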
Leishmania in macrophages: 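Cell assay of Leishmania donovani living inside macrophages; the read-out is not stated. Compounds at 30 µM. Higher reads as stronger inhibition (inferred: compounds with an IC50 in retests scored well above the rest). Size under these conditions: about 69,000 compounds, about 1,000 of them at 50% or above in at least one test.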
CoaBC: 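Enzyme assay of CoaBC with a phosphate dye (Biomol Green) read at 650 nm. Target: Coenzyme A biosynthesis protein CoaBC, Mycobacterium tuberculosis (UniProt P9WNZ1). Concentration: 30 µM. Higher reads as stronger inhibition, judged from the few compounds that gave an IC50. Most strong results did not repeat in a second test. About 67,000 compounds were tested under these conditions; 0.06% (about 40) showed 50% or more at least once.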

With COc1ccccc1S(=O)(=O)CCOC(C)C the screen gave LiHisRS: 12.61%; Leishmania in macrophages: 22.05%; CoaBC: -1.138%.
With CCc1nnc2n1CC(CNCc1nc(-c3ccsc3)no1)CC2 (stereo unspecified) the screen gave LiHisRS: 13.7%; Leishmania in macrophages: 11.29%; CoaBC: 2.273%.
With COc1nn(C)c2c1CCCN(C(=O)c1ccc3c(c1)OCO3)C2 the screen gave LiHisRS: 27.16%; CoaBC: 3.713%.
With Cc1nccn1-c1ncccc1NC(=O)CCOCC(C)C the screen gave LiHisRS: 19.35%; Leishmania in macrophages: 13.41%; CoaBC: -0.5612%.
With CCN1CCN(CCCNC(=O)c2cc3ccc(C)cc3nc2C)CC1 the screen gave LiHisRS: 17.33%; Leishmania in macrophages: 16.78%; CoaBC: 8.678%.
With Cn1nc2c(cc1=O)CN(Cc1nc(N)c3ccccc3n1)CC2 the screen gave LiHisRS: 43.53%; Leishmania in macrophages: 9.578%; CoaBC: 6.853%.
With Cc1cc(C(=O)Nc2cnn(CC(F)(F)F)c2)nc(N(C)C)n1 the screen gave LiHisRS: 15.52%; Leishmania in macrophages: -3.084%; CoaBC: -5.774%.
With Cc1cc(C2CCCN(C(=O)COc3cccc(F)c3)C2)n[nH]1 (stereo unspecified) the screen gave LiHisRS: 7.937%; Leishmania in macrophages: -28.15%; CoaBC: -13.61%.
With CN(Cc1ccccc1)CC(C)(C)NC(=O)c1ccc(C(N)=O)cn1 the screen gave LiHisRS: 10.64%; Leishmania in macrophages: -10.29%; CoaBC: 2.481%.
With Cc1cc(C(=O)N[C@@H]2CCC[C@@H](N3CCOCC3)[C@@H]2O)no1 the screen gave LiHisRS: 14.18%; Leishmania in macrophages: 29.44%; CoaBC: 6.012%.
With CCN1CCC(N2C[C@@H](C(=O)O)[C@H](c3cccc(OC)c3)C2)CC1 the screen gave LiHisRS: 20%; Leishmania in macrophages: 33.66%; CoaBC: -19.01%.
With CC(C)N1CCC2(CCNCC2)C1=O.Cl the screen gave Leishmania in macrophages: -2.324%.
With CN(Cc1ccc(C#N)cc1)C(=O)c1ccn(C)c(=O)c1 the screen gave LiHisRS: 15.93%; Leishmania in macrophages: 23.98%; CoaBC: 3.899%.
With Cc1cccc(NC2CCN(C(=O)Nc3cn[nH]c3)CC2)n1 the screen gave LiHisRS: 1.786%; Leishmania in macrophages: 40.73%; CoaBC: 6.701% & 27.41%.
With CN(C)CCn1c2c(ccc1=O)CC(NC(=O)c1ccsc1)CC2.O=C(O)C(F)(F)F (stereo unspecified) the screen gave Leishmania in macrophages: -24.04%.
With Cc1ncsc1CN1Cc2cnn(C)c2C(COCC2CC2)C1 (stereo unspecified) the screen gave LiHisRS: 15.04%; CoaBC: 2.737%.
With O=C(NCCn1nc2ccccn2c1=O)c1cc(-c2ccccc2)[nH]n1 the screen gave LiHisRS: 5.66%; Leishmania in macrophages: -18.04%; CoaBC: 13.26%.
With CN(C)c1cc(C(=O)NCCc2n[nH]c(=O)[nH]2)ccn1 the screen gave LiHisRS: 17.14%; Leishmania in macrophages: -11.21%; CoaBC: -3.104%.
With Cc1ccc(S(N)(=O)=O)cc1C(=O)N1CCc2c(ncnc2N(C)C)C1 the screen gave LiHisRS: 9.836%; Leishmania in macrophages: 29.89%; CoaBC: 3.325%.
With CCN(CC)S(=O)(=O)NCC1COc2ccccc2O1 (stereo unspecified) the screen gave LiHisRS: 0%; Leishmania in macrophages: 2.246%; CoaBC: -2.42%.
With CCOCCN1CCN(Cc2nc(C)no2)CC1CC (stereo unspecified) the screen gave LiHisRS: 17.81%; Leishmania in macrophages: 20.56%; CoaBC: 2.244%.
With CN(CCC(F)(F)F)C(=O)c1nc(S(C)(=O)=O)n2ccccc12 the screen gave LiHisRS: -2.778%; Leishmania in macrophages: -6.686%; CoaBC: 8.421%.
With CCOCC1CN(C(=O)N2CCCC2)Cc2cnn(CC)c21 (stereo unspecified) the screen gave LiHisRS: 4.587%; Leishmania in macrophages: 17.09%; CoaBC: 0.2028%.
With COc1ccc2[nH]c(C(=O)NCC3(N)CCCC3)cc2c1 the screen gave LiHisRS: 9.901%; Leishmania in macrophages: 36.01%; CoaBC: 0.2427%.
With CSCc1noc(CN(C)C(C)c2nc(C)sc2C)n1 (stereo unspecified) the screen gave LiHisRS: 8.571%; Leishmania in macrophages: -3.518%; CoaBC: 5.495%.
With c1csc(CN2CCCC3(COCCN(c4cnccn4)C3)C2)c1 (stereo unspecified) the screen gave LiHisRS: 24%; CoaBC: 0.5%.
With CC(C)c1nnc(NC(=O)CCc2cc(F)ccc2F)[nH]1 the screen gave LiHisRS: 3.2%; Leishmania in macrophages: -3.047%; CoaBC: 0.7317%.
With c1ccc(Cn2cccn2)c(CN2CCC3(CCCNC3)C2)c1 (stereo unspecified) the screen gave LiHisRS: 15.2%; Leishmania in macrophages: 31.24%; CoaBC: 5.187%.

2 of the entries, repeated:

{"smiles": "CC(C)c1nnc(NC(=O)CCc2cc(F)ccc2F)[nH]1", "LiHisRS": 3.2, "Leishmania in macrophages": -3.047, "CoaBC": 0.7317}
{"smiles": "Cn1nc2c(cc1=O)CN(Cc1nc(N)c3ccccc3n1)CC2", "LiHisRS": 43.53, "Leishmania in macrophages": 9.578, "CoaBC": 6.853}